# According to article PMC4873228:
# Results are given in words; binding and its absence hold for the method and conditions named. Binding seen in cells or lysates may run through a third protein. Some entries that bind do so weakly or less than the wild type. Tags and fused reporters may be left off the sequences shown.
# T1: UBR::GFP (UBR domain of Ubr3, aa 222-292, with GFP at the carboxyl terminus) (Drosophila) (UniProt Q9W3M3)
# T1 sequence: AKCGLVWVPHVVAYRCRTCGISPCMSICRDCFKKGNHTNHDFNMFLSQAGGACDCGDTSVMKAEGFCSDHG
# Assays:
# [1] = molecular target: T1, UBR::GFP (UBR domain of Ubr3, aa 222-292, with GFP at the carboxyl terminus) (Drosophila); assay: co-IP; UBR::GFP or GFP alone precipitated with anti-GFP beads from lysates of transiently transfected S2 cells; blot with anti-Ubr3 antibody for endogenous Ubr3; lysis buffer 25 mM Tris-HCl pH 7.5, 150 mM NaCl, 1 mM EDTA, 1% NP-40, 5% glycerol, 1 mM DTT; beads overnight at 4°C
# [2] = molecular target: T1, UBR::GFP (UBR domain of Ubr3, aa 222-292, with GFP at the carboxyl terminus) (Drosophila); assay: co-IP; S2 cells co-transfected with HA::Cos2 or its deletion constructs and GFP, UBR::GFP or Ubr3::GFP; lysate precipitated with anti-GFP agarose overnight at 4°C, blot anti-HA and anti-GFP; lysis buffer 25 mM Tris-HCl pH 7.5, 150 mM NaCl, 1 mM EDTA, 1% NP-40; Ubr3::GFP with HA::Cos2 also after Colchicine (1 ug/ml, 5 hours; interaction not affected) and with co-transfected Hh (interaction strongly increased)
# [3] = molecular target: Ubr3::GFP (full length Ubr3 with GFP at the carboxyl terminus) (Drosophila) (UniProt Q9W3M3); assay: as above
Molecule,binding [1],binding [2],binding [3]
endogenous Ubr3 full length protein (from UniProt Q9W3M3 1-2219) (enzyme),binds,,
"HA::Cos2 (full length Costal 2) (protein, UniProt O16844 1-1201) MEIPIQVAVRIFPHRELKDLLRSFGPTEPKKDAQAVDEGADSKDSEAQVPAAEKDNPSISETDPNGNAEQDSAADSKTIPDANGNDSGQKDYPDSAYCVQAIPISASALGLPSALPGGDPMDSIAAGLIQVGPHTVPVTHALPSSSSQEQVYHQTVFPLITLFLEGFDASVVTYGQRGQGKSYTLYGNVQDPTLTDSTEGVVQLCVRDIFSHISLHPERTYAINVGFVEICGGDVCDLLGMGNIHCTNVDAVFHWLQVGLSARQSLPAHTLFTLTLEQQWVSKEGLLQHRLSTASFSDLCGTERCGDQPPGRPLDAGLCMLEQVISTLTDPGLMYGVNGNIPYGQTTLTTLLKDSFGGRAQTLVILCVSPLEEHLPETLGNLQFAFKVQCVRNFVIMNTYSDDNTMIVQPAEPVPESNSSAGPLSQAGPGDNFGLQFAASQWSKLVTNAEGLFSKLIDSKLITEVEKEQIEEWLFLKQECEECLSSTEAMRQQKQLVPILEAEEPEDVNSEAANSESPNSDNENDTDNESHRPDLDDKIESLMEEFRDKTDALILEKHAEYLSKHPKAVMQSQDREIEAQPPEENGDDRKVSIGSRRRSVQPGASLSTAELAMLNRVASQQPPPPIDPESVVDPLESSSGEGIRQAALAAAAATAPIEQLQKKLRKLVAEIEGKQRQLREIEETIQVKQNIIAELVKNSDTRSHAKQRFHKKRAKLEAECDKAKKQLGKALVQGRDQSEIERWTTIIGHLERRLEDLSSMKHIAGESGQKVKKLQQSVGESRKQADDLQKKLRKECKLRCQMEAELAKLRESRETGKELVKAQGSPEQQGRQLKAVQARITHLNHILREKSDNLEEQPGPEQQETLRHEIRNLRGTRDLLLEERCHLDRKLKRDKVLTQKEERKLLECDEAIEAIDAAIEFKNEMITGHRSIDTSDRIQREKGEQMLMARLNRLSTEEMRTLLYKYFTKVIDLRDSSRKLELQLVQLERERDAWEWKERVLSNAVRQARLEGERNAVLLQRQHEMKLTLMLRHMAEETSASSASYGERALAPACVAPPVQASSDFDYDHFYKGGGNPSKALIKAPKPMPTGSALDKYKDKEQRSGRNIFAKFHVLTRYASAAAAGSSGSTAEESTALIESTTTATATTTSTTTTGAVGKVKDKALVSFRPEQLKRLMPAPTATKVTRQKNKIIIQDASRRN",,binds,binds
